Reference: patent publication US20120289467A1 (UNIVERSITY OF MARYLAND BALTIMORE, published 2012)
Results are given in words; binding and its absence hold for the method and conditions named. Some binding calls cover weakened binding; strength is not graded here.

T1: VE-cadherin fragment (UniProt P33151 48-477, limits assumed)
T1 construct: also called VE-caherin; immobilized VE-cadherin fragment
T1 sequence (looked up): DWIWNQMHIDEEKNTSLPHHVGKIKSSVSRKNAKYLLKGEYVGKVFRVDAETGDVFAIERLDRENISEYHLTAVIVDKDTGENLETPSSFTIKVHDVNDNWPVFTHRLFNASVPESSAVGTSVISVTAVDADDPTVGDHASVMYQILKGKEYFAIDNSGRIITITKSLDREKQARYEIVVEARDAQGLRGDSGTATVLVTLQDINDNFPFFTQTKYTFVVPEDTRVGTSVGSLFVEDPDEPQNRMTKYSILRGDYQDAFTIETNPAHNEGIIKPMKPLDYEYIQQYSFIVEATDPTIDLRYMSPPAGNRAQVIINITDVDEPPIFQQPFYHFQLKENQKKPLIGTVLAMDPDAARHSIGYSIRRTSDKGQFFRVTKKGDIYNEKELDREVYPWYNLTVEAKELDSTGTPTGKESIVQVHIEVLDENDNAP


Legend:
VE-cadherin fragment [1] = target: T1, VE-cadherin fragment; experiment: SPR
VE-cadherin fragment [2] = target: T1, VE-cadherin fragment; experiment: SPR (BIAcore), VE-cadherin fragment immobilized
VE-cadherin fragment [3] = target: T1, VE-cadherin fragment; experiment: plate assay read as absorbance at 450 nm, VE-cad(1-5) concentration varied (0-0.5 µM); format not described in the text
VE-cadherin fragment [4] = target: T1, VE-cadherin fragment; experiment: SPR, VE-cadherin fragment immobilized

| binding (VE-cadherin fragment [1]) | binding (VE-cadherin fragment [2]) | binding (VE-cadherin fragment [3]) | binding (VE-cadherin fragment [4]) | Binder |
| --- | --- | --- | --- | --- |
| binds | binds | – | – | GHRPLDKKREEAPSLRPAPPPISGGGYRARPAKAAATQKKVERKAPDAGG [β15-64 monomeric peptide] |
| binds | binds | – | – | GHRPLDKKREEAPSLRPAPPPISGGGYR (also called monomeric β15-42) [β15-42 monomeric peptide] |
| binds | – | binds | binds | GHRPLDKKREEAPSLRPAPPPISGGGYRCG [(β15-44)2 dimer peptide] |
| binds | – | – | – | (β15-66)2 dimer peptide (peptide) peptide: GHRPLDKKREEAPSLRPAPPPISGGGYRARPAKAAATQKKVERKAPDAGGCG |
